Consider one substance from article PMC4349446.

Protein sequences, listed by entry. Tags and fused reporters are not part of them. Residues count along the entry.
UniProt Q9EQ09, residues 55-363: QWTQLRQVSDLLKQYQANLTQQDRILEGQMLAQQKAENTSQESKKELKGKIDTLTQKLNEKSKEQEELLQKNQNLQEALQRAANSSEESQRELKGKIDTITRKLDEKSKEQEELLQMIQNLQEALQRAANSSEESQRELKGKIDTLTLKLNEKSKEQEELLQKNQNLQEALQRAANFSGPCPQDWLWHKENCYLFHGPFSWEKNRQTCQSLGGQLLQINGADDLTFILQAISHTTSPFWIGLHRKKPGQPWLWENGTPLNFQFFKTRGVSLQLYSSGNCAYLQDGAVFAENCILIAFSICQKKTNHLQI

This test has as its target T1, mouse SAA3 fused to the GAL4 DNA-binding domain (mouse) (UniProt P04918).
T1 sequence: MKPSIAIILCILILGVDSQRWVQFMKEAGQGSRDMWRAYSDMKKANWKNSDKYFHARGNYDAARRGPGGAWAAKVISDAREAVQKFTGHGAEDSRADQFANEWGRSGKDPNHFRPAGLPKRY
In words: two-hybrid; confirmation and deletion assays: baits fused to the GAL4 DNA-binding domain, preys fused to the GAL4-activation domain (pGADT7); growth in SD-4 (-Leu, -Trp, -His, -Ade) in a series of dilutions.

Results are given in words; binding and its absence hold for the method and conditions named. Where a sequence is shown, tags or fusion partners need not be part of it.

Take “mouse LOX-1 extracellular domain fused to the GAL4-activation domain (from UniProt Q9EQ09 55-363) (domain or fragment)”: the binding result is given as “no binding”.
